The list shows a part of the results.
Legend:
Assay in all cases: log2 fold change, soluble protein after heating vs DMSO (PISA); higher = thermal stabilisation; K562 cells, 10 uM, 30 min; active = over 0.2 and 3.5 SD of the protein, either way, in both replicates (recomputed)
[1] = compound: CS(=O)(=O)c1ccc(-c2cnc(N)c(C(=O)Nc3ccccc3)n2)cc1
Procedure, shortened: (§1)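 K562 cells at 2×10^6 cells/mL were treated for 30 min with 10 μM compound, and aliquots were heated for 3 min over 48°C-58°C before pooling. Extraction used PBS with 0.5% NP-40 at 4°C, and soluble protein was the supernatant after 21,000xg for 90 min, measured by TMTpro 16plex LC-MS/MS with channel sums equalised. Thermal stability values, relative to control samples and from duplicates, are log2 fold changes.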

The chains behind the UniProt entries cited, without tags or fusion partners. Where a name states a change or a piece, a line headed by the entry shows the natural chain unless it says otherwise.
UniProt Q9BQT8: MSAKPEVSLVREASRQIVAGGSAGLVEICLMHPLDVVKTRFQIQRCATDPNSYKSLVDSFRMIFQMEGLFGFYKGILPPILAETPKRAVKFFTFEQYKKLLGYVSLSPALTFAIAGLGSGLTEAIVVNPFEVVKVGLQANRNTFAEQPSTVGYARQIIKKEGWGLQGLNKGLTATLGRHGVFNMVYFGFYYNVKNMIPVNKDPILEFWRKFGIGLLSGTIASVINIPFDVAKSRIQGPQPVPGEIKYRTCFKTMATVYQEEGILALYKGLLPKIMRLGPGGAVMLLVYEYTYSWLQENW
UniProt Q02978: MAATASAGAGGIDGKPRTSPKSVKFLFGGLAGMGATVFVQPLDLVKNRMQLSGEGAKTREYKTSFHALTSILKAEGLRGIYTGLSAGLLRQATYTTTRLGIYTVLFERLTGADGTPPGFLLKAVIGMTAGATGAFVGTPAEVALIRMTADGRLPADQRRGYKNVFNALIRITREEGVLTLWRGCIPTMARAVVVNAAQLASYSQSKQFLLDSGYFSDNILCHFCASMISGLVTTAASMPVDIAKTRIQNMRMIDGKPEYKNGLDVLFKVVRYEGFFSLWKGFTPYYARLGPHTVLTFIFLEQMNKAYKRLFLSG
UniProt Q9H936: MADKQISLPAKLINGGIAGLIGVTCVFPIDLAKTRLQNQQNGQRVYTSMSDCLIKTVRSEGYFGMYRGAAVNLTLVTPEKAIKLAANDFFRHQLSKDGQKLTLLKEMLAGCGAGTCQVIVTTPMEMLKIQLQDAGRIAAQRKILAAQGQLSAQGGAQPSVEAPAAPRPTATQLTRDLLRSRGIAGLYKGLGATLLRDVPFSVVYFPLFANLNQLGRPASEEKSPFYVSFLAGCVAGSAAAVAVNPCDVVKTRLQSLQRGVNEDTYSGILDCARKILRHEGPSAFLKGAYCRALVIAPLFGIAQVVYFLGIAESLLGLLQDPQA
UniProt Q9Y619: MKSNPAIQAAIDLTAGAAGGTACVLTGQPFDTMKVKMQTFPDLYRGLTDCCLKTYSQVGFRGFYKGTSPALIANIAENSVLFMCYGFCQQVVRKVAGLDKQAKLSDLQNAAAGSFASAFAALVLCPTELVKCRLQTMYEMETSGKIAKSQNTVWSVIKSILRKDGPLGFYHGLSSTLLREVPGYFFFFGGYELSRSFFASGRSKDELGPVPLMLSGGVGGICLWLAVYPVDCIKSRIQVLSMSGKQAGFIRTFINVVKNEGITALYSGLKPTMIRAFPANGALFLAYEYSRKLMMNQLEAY
UniProt Q8TBP6: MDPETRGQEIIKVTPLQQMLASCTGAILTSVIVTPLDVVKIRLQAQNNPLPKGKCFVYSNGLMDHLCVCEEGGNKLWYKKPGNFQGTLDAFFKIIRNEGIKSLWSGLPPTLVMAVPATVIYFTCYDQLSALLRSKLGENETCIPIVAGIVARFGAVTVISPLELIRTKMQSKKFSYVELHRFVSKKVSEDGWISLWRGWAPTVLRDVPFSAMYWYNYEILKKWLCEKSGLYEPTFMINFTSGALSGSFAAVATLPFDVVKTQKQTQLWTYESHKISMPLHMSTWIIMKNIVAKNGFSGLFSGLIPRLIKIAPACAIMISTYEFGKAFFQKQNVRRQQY
UniProt O60779: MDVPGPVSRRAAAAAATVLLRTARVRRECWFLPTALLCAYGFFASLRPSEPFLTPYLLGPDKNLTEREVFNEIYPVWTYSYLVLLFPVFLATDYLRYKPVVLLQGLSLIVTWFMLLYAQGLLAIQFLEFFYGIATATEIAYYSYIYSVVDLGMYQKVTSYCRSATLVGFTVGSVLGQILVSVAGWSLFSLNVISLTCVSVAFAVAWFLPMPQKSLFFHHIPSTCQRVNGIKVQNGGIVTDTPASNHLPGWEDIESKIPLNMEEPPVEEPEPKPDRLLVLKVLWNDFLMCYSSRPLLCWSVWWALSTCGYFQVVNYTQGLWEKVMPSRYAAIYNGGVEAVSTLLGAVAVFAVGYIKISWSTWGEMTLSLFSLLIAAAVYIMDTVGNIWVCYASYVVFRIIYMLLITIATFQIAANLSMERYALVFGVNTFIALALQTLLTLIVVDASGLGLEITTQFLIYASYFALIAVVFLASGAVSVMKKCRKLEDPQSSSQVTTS
UniProt P49281: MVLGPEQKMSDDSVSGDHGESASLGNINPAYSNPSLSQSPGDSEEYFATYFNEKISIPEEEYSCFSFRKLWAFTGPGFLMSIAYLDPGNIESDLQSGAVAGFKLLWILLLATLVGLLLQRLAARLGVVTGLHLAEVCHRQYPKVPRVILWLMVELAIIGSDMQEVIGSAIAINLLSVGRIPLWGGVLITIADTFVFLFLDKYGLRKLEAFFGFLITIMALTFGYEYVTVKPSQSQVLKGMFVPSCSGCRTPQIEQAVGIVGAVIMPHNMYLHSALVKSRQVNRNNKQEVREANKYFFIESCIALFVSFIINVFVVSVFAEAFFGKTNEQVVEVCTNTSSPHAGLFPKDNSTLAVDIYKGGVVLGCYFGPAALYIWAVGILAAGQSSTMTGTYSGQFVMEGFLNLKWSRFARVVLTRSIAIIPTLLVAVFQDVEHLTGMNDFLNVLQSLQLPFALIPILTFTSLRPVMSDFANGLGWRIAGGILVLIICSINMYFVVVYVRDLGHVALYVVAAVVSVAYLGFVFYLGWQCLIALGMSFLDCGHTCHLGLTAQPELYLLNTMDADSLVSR
UniProt Q9UPY5: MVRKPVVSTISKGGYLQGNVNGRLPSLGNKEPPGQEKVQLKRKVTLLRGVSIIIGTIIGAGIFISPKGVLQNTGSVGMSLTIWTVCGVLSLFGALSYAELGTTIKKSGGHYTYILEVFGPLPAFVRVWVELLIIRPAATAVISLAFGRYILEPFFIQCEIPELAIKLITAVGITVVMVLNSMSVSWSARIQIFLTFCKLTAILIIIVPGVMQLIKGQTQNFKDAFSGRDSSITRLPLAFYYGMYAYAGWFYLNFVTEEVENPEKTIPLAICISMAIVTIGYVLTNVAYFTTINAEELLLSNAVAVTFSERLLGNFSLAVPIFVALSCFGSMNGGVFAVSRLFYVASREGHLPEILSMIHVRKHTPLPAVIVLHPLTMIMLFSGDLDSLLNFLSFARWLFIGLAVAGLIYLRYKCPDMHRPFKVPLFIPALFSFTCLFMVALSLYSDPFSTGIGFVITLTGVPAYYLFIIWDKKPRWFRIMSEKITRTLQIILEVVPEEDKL
UniProt Q00325: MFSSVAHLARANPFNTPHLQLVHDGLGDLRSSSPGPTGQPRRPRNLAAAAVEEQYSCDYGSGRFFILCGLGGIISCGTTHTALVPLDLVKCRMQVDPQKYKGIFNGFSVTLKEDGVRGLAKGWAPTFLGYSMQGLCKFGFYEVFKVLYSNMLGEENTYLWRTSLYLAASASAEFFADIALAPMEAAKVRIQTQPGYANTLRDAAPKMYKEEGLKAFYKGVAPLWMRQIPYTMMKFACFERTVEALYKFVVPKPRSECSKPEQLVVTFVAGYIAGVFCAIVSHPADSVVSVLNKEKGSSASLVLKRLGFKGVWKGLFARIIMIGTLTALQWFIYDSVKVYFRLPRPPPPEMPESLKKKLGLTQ
UniProt Q9UBX3: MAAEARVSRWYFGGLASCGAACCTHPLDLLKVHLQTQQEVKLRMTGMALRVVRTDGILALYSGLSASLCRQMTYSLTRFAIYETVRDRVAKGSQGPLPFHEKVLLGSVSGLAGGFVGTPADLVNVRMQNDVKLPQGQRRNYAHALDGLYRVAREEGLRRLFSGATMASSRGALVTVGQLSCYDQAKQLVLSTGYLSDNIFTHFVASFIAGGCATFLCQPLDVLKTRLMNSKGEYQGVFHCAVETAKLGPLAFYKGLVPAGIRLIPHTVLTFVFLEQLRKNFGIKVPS
UniProt Q9Y6M7: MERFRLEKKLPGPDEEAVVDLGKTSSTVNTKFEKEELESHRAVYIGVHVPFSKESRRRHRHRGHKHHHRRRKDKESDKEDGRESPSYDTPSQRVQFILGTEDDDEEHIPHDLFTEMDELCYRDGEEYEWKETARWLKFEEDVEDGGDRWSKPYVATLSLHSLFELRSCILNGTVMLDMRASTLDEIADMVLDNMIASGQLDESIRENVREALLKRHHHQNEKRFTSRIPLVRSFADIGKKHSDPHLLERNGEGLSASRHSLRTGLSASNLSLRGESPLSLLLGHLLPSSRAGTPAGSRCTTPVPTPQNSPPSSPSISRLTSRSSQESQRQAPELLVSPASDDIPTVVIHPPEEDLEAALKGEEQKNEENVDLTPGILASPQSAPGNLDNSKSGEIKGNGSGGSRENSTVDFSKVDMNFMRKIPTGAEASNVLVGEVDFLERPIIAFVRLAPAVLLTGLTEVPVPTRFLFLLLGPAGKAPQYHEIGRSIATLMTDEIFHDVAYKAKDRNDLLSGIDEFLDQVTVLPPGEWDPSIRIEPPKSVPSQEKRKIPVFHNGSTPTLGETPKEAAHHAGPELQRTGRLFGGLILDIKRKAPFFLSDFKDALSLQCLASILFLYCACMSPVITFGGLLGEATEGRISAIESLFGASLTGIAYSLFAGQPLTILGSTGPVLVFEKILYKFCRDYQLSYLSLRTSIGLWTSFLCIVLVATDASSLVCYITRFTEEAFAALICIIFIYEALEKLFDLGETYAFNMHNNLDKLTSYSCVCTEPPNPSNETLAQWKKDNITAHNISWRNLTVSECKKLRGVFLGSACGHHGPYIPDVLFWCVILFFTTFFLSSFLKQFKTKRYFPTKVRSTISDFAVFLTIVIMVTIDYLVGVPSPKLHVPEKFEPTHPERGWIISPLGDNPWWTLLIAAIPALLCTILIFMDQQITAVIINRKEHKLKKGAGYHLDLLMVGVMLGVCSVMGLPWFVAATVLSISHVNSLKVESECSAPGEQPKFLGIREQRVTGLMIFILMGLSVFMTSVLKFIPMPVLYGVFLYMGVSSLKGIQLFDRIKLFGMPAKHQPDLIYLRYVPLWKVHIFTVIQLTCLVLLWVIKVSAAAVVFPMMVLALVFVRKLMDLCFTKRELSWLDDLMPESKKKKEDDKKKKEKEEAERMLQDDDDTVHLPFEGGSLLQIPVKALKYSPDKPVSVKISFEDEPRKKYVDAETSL
UniProt Q9BSK2: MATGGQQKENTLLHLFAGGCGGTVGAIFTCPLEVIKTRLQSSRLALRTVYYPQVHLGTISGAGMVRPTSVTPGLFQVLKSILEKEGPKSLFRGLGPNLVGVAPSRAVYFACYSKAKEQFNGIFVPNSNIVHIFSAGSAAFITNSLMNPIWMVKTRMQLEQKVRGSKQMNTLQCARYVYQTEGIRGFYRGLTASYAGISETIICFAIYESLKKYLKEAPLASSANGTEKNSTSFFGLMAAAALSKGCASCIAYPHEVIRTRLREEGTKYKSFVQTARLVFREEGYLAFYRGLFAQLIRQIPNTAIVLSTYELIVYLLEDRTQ
UniProt Q9ULF5: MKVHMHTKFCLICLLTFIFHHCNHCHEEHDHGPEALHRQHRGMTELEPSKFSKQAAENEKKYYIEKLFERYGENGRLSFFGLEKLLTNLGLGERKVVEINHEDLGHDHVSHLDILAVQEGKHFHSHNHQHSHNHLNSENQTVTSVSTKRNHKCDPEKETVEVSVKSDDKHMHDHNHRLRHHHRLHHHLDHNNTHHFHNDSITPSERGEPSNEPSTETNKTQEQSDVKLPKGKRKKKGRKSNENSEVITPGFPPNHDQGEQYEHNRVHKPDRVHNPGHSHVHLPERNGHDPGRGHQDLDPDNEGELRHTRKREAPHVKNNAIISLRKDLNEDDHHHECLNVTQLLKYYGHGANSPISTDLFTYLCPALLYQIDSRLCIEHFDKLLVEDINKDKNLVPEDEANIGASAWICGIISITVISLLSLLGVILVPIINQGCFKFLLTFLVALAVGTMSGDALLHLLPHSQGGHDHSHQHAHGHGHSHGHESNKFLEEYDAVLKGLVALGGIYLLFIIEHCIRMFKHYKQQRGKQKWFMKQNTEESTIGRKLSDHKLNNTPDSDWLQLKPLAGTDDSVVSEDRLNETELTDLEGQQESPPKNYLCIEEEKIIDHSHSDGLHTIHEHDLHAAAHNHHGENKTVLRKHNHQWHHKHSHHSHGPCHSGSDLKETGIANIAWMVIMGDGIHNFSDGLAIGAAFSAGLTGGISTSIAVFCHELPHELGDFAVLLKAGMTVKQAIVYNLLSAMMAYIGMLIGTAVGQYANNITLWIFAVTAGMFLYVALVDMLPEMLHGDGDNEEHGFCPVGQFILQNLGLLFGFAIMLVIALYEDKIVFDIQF
UniProt Q9HC21: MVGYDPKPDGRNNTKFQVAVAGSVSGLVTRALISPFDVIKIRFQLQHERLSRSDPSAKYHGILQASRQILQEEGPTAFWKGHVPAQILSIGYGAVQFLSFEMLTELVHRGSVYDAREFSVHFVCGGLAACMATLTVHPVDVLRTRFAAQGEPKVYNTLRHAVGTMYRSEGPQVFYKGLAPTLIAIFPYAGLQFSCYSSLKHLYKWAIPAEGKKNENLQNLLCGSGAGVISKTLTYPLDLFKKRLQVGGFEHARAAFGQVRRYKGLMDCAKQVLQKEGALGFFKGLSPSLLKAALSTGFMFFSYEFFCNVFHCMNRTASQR

crizotinib = compound: C[C@@H](Oc1cc(-c2cnn(C3CCNCC3)c2)cnc1N)c1c(Cl)ccc(F)c1Cl [crizotinib]
Procedure, shortened: as §1

[2] = compound: C[C@@H]1COCCN1C2=NC(=NC(=C2)C3(CC3)S(=O)(=O)C)C4=C5C=CNC5=CC=C4
Procedure, shortened: as §1

[3] = compound: C[C@H](C1=CC=C(C=C1)C(=O)NC2=C3C=CNC3=NC=C2)N
Procedure, shortened: as §1

duvelisib = compound: C[C@H](Nc1ncnc2nc[nH]c12)c1cc2cccc(Cl)c2c(=O)n1-c1ccccc1 [duvelisib]
Procedure, shortened: as §1

gandotinib = compound: Cc1cc(Nc2cc(CN3CCOCC3)c3nc(C)c(Cc4ccc(Cl)cc4F)n3n2)n[nH]1 [gandotinib]
Procedure, shortened: as §1

tozasertib = compound: Cc1cc(Nc2cc(N3CCN(C)CC3)nc(Sc3ccc(NC(=O)C4CC4)cc3)n2)n[nH]1 [tozasertib]
Procedure, shortened: as §1

[4] = compound: Cc1cc(SCc2sc(-c3ccc(C(F)(F)F)cc3)nc2C)ccc1OCC(=O)O
Procedure, shortened: as §1

doramapimod = compound: Cc1ccc(-n2nc(C(C)(C)C)cc2NC(=O)Nc2ccc(OCCN3CCOCC3)c3ccccc23)cc1 [doramapimod]
Procedure, shortened: as §1

ispinesib = compound: Cc1ccc(C(=O)N(CCCN)[C@@H](c2nc3cc(Cl)ccc3c(=O)n2Cc2ccccc2)C(C)C)cc1 [ispinesib]
Procedure, shortened: as §1

bafetinib = compound: Cc1ccc(NC(=O)c2ccc(CN3CC[C@H](N(C)C)C3)c(C(F)(F)F)c2)cc1Nc1nccc(-c2cncnc2)n1 [bafetinib]
Procedure, shortened: as §1

[5] = compound: Cc1cccc(CC(=O)N2CCc3c2ccc(-c2cn(C)c4ncnc(N)c24)c3F)n1
Procedure, shortened: as §1

nilotinib = compound: Cc1cn(-c2cc(NC(=O)c3ccc(C)c(Nc4nccc(-c5cccnc5)n4)c3)cc(C(F)(F)F)c2)cn1 [nilotinib]
Procedure, shortened: as §1

[6] = compound: Cc1nc(Nc2n[nH]c3c2CN(C(=O)N[C@H](CN(C)C)c2ccccc2)C3(C)C)c2sccc2n1
Procedure, shortened: as §1

dasatinib = compound: Cc1nc(Nc2ncc(C(=O)Nc3c(C)cccc3Cl)s2)cc(N2CCN(CCO)CC2)n1 [dasatinib]
Procedure, shortened: as §1

[7] = compound: Cc1ncc(-c2ccnc(Nc3ccc(S(C)(=O)=O)cc3)n2)n1C(C)C
Procedure, shortened: as §1

[8] = compound: Cn1cc(-c2ccc3c(c2)CCN3C(=O)Cc2cccc(C(F)(F)F)c2)c2c(N)ncnc21
Procedure, shortened: as §1

[9] = compound: Cn1cc(-c2ccc3nnc(C(F)(F)c4ccc5ncccc5c4)n3n2)cn1
Procedure, shortened: as §1

tipifarnib = compound: Cn1cncc1[C@@](N)(c1ccc(Cl)cc1)c1ccc2c(c1)c(-c1cccc(Cl)c1)cc(=O)n2C [tipifarnib]
Procedure, shortened: as §1

mubritinib = compound: FC(F)(F)c1ccc(/C=C/c2nc(COc3ccc(CCCCn4ccnn4)cc3)co2)cc1 [mubritinib]
Procedure, shortened: as §1

Measured: log2 fold change

SLC25A21 (UniProt Q9BQT8)
inactive: [1] 0.02 | crizotinib 0.085 | [2] 0.022 | [3] -0.021 | duvelisib -0.045 | gandotinib 0.007 | tozasertib -0.007 | [4] -0.099 | doramapimod -0.019 | ispinesib -0.007 | bafetinib -0.088 | [5] -0.039 | nilotinib 0.001 | [6] -0.012 | dasatinib 0.047 | [7] -0.046 | [8] -0.008 | [9] 0.016 | tipifarnib 0.076 | mubritinib 0.035

SLC25A11 (UniProt Q02978)
inactive: [1] -0.015 | crizotinib 0.042 | [2] 0.012 | [3] -0.046 | duvelisib 0 | gandotinib 0.013 | tozasertib -0.022 | [4] -0.034 | doramapimod -0.03 | ispinesib 0.005 | bafetinib -0.053 | [5] 0.033 | nilotinib 0.016 | [6] -0.029 | dasatinib 0.056 | [7] -0.028 | [8] 0.034 | [9] -0.003 | tipifarnib -0.009 | mubritinib 0.034

SLC25A22 (UniProt Q9H936)
inactive: [1] -0.02 | crizotinib 0.079 | [2] 0.02 | [3] -0.06 | duvelisib 0.021 | gandotinib 0.031 | tozasertib -0.051 | [4] -0.046 | doramapimod -0.028 | ispinesib 0.02 | bafetinib -0.048 | [5] -0.077 | nilotinib -0.005 | [6] 0.039 | dasatinib 0.033 | [7] -0.02 | [8] -0.024 | [9] 0.021 | tipifarnib 0.015 | mubritinib 0.022

SLC29A1 isoform 2 (UniProt Q99808)
inactive: [1] 0.046 | crizotinib 0.119 | [2] 0.044 | [3] -0.081 | duvelisib 0.097 | gandotinib -0.118 | tozasertib -0.003 | [4] -0.041 | doramapimod -0.065 | ispinesib 0.165 | bafetinib 0.047 | [5] -0.005 | nilotinib 0.018 | [6] 0.046 | dasatinib 0.046 | [7] -0.036 | [8] 0.034 | [9] -0.051 | tipifarnib -0.031 | mubritinib 0.021

SLC25A15 (UniProt Q9Y619)
inactive: [1] 0.025 | crizotinib 0.093 | [2] 0.02 | [3] -0.044 | duvelisib 0.017 | gandotinib 0.035 | tozasertib -0.027 | [4] -0.028 | doramapimod -0.002 | ispinesib 0.046 | bafetinib -0.056 | [5] 0.004 | nilotinib 0 | [6] 0.021 | dasatinib 0.033 | [7] -0.064 | [8] 0.001 | [9] -0.037 | tipifarnib 0.058 | mubritinib 0.008

SLC25A40 (UniProt Q8TBP6)
inactive: [1] 0.009 | crizotinib -0.023 | [2] 0.028 | [3] -0.027 | duvelisib -0.039 | gandotinib 0.035 | tozasertib 0.003 | [4] -0.069 | doramapimod -0.004 | ispinesib -0.016 | bafetinib -0.019 | [5] -0.028 | nilotinib -0.006 | [6] 0 | dasatinib 0.024 | [7] -0.01 | [8] -0.045 | [9] 0.001 | tipifarnib 0.031 | mubritinib -0.038

SLC19A2 (UniProt O60779)
inactive: [1] -0.148 | crizotinib 0.166 | [2] -0.281 | [3] -0.232 | duvelisib -0.258 | tozasertib 0.027 | [4] -0.075 | doramapimod -0.067 | ispinesib 0.057 | nilotinib 0.209 | [6] -0.114 | dasatinib -0.006 | [7] -0.108 | [8] -0.239 | [9] -0.115 | tipifarnib 0.006

SLC11A2 isoform 3 (UniProt P49281)
inactive: [1] 0.106 | crizotinib -0.149 | [2] -0.002 | [3] -0.114 | duvelisib 0.124 | tozasertib -0.024 | [4] -0.192 | doramapimod 0.052 | ispinesib -0.04 | bafetinib -0.098 | nilotinib 0.021 | [6] 0 | dasatinib -0.039 | [7] -0.041 | [8] 0.134 | [9] -0.097 | tipifarnib 0.032 | mubritinib -0.039

SLC7A11 (UniProt Q9UPY5)
inactive: [1] 0.015 | crizotinib 0.049 | [2] -0.01 | [3] -0.045 | duvelisib 0.093 | gandotinib 0.024 | tozasertib -0.05 | [4] -0.025 | doramapimod -0.024 | ispinesib 0.067 | bafetinib -0.075 | [5] -0.043 | nilotinib 0.073 | [6] -0.002 | dasatinib 0.033 | [7] 0 | [8] 0.05 | [9] 0.006 | tipifarnib 0.014 | mubritinib -0.003

SLC25A3 isoform 2 (UniProt Q00325)
inactive: [1] 0.013 | crizotinib 0.092 | [2] 0.028 | [3] -0.075 | duvelisib 0.02 | gandotinib 0.039 | tozasertib 0.016 | [4] -0.022 | doramapimod -0.01 | ispinesib 0.012 | bafetinib -0.024 | [5] -0.033 | nilotinib 0.01 | [6] 0.027 | dasatinib 0.04 | [7] -0.017 | [8] 0.031 | [9] 0.023 | tipifarnib 0.002 | mubritinib 0.004

SLC25A10 isoform 2 (UniProt Q9UBX3)
inactive: [1] -0.047 | crizotinib 0.08 | [2] -0.028 | [3] -0.069 | duvelisib -0.038 | gandotinib 0.018 | tozasertib 0.017 | [4] -0.004 | doramapimod -0.04 | ispinesib -0.009 | bafetinib 0.017 | [5] 0.031 | nilotinib -0.02 | [6] 0.008 | dasatinib 0.017 | [7] 0.01 | [8] 0.016 | [9] -0.031 | tipifarnib 0.018 | mubritinib -0.003

SLC4A7 isoform 7 (UniProt Q9Y6M7)
inactive: [1] 0.002 | crizotinib 0 | [2] 0.02 | [3] 0.131 | duvelisib 0.015 | tozasertib -0.06 | [4] -0.076 | doramapimod 0.123 | ispinesib 0.101 | bafetinib 0.006 | nilotinib 0.296 | [6] -0.153 | dasatinib -0.043 | [7] -0.228 | [8] -0.103 | [9] 0.016 | tipifarnib -0.043 | mubritinib -0.067

SLC25A33 (UniProt Q9BSK2)
inactive: [1] -0.034 | crizotinib 0.014 | [2] 0.058 | [3] -0.028 | duvelisib -0.087 | gandotinib -0.016 | tozasertib -0.035 | [4] -0.057 | doramapimod 0.044 | ispinesib -0.134 | bafetinib -0.008 | [5] 0.025 | nilotinib -0.026 | [6] 0.035 | dasatinib -0.017 | [7] -0.01 | [8] -0.021 | [9] 0.029 | tipifarnib 0.061 | mubritinib 0.026

SLC20A2 (UniProt Q08357)
inactive: [1] 0.077 | crizotinib -0.011 | [2] 0.055 | [3] -0.041 | duvelisib 0.171 | gandotinib 0.013 | tozasertib -0.075 | [4] 0.021 | doramapimod 0.05 | ispinesib 0.034 | bafetinib -0.035 | [5] -0.111 | nilotinib 0.074 | [6] -0.048 | dasatinib -0.017 | [7] -0.019 | [8] 0.007 | [9] 0.077 | tipifarnib 0 | mubritinib 0.118

SLC39A10 (UniProt Q9ULF5)
inactive: [1] 0.034 | crizotinib 0.062 | [2] 0.016 | [3] -0.073 | duvelisib 0.078 | gandotinib -0.005 | tozasertib -0.093 | [4] -0.048 | doramapimod 0.028 | ispinesib 0.072 | bafetinib -0.051 | [5] -0.013 | nilotinib 0.069 | [6] 0.009 | dasatinib 0.059 | [7] 0.024 | [8] 0.088 | [9] -0.036 | tipifarnib 0.06 | mubritinib 0.085

SLC25A19 (UniProt Q9HC21)
inactive: [1] 0.005 | crizotinib 0.086 | [2] 0.02 | [3] -0.041 | duvelisib 0.002 | gandotinib 0.033 | tozasertib -0.012 | [4] -0.041 | doramapimod -0.03 | ispinesib 0.037 | bafetinib -0.055 | [5] -0.002 | nilotinib 0.009 | [6] 0.031 | dasatinib 0.034 | [7] -0.015 | [8] 0.03 | [9] 0.011 | tipifarnib 0.039 | mubritinib 0.006

Source: the supplement of paper PMC10849652
